# Measurements: PMC4081072, “Structure and semi-sequence-specific RNA binding of Nrd1”
# Tags and fusion partners may be left off the protein sequences shown.
# Biological target: T1, Nrd1 307-491 WT (Saccharomyces cerevisiae) (UniProt P53617)
# T1 sequence (looked up): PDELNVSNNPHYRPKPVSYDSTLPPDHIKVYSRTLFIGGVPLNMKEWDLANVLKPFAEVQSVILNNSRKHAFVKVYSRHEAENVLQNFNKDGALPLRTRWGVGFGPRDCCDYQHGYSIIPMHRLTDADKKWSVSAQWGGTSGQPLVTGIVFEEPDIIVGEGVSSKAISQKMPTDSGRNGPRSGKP
# Experiment: fluorescence anisotropy
# Details: FA: 10 nM RNA, 50 mM sodium phosphate pH 8, 150 mM NaCl, 10 mM beta-mercaptoethanol, 20 C (protein stock in 300 mM NaCl); recombinant protein; residues 307-491; protein details: C-terminal His6; label: 5' fluorescein or TAMRA
sequence,measurement,value
CCCCCCC [C7],Kd,> 500 µM
